Measured values taken from patent US20230287376.

Molecular target: BspQI (UniProt D2D3S6)
Test: enzyme reaction in vitro
Settings: NEBuffer 3.1, 50 C, 1 h, CE assay; purified recombinant protein; protein details: untagged, NEB R0712L; label: 5'-FAM on forward strand (10% labelled)

For “TGCCGCTTTCTGCATCAGCACATCATCTTCAGGCTCTTCGTCAGCCTCGCGCCGGTTCAG (double strand) [BspQI CE substrate]”, the “activity on this sequence” value was “active”.
